Assays:
[1] = tested on: CYP3A4-luc transgene (13 kb human CYP3A4 promoter); settings: FVB (CYP3A4-luc transgenic, line #82), mouse, in vivo
Experimental: General methods for evaluating the animal lines were as follows. Tg founders were bred to wild-type FvB mice to generate F1 mice. A female transgenic founder was bred to a wild-type FvB male and a male transgenic founder was bred to a few wild-type FvB females.
A Luciferin stock solution of 30 mg/ml was prepared in sterile PBS.
The route of administration for the drugs and for luciferin was IP. The dose of reagent administration of luciferin substrate and drugs was as follows. Dose of luciferin: 150 mg/kg of a 30 mg/ml luciferin stock was injected IP five minutes before imaging in the IVIS™ (Xenogen Corporation, Alameda, Calif.) system. […] DMSO was administrated as a vehicle control.
Following luciferin administration the animals were anesthetized using gas anesthesia (Isoflurane) and placed in an IVIS™ box (Xenogen Corporation, Alameda, Calif.) for imaging. All animals were imaged before and after chemical administration, and imaged at high resolution (binning 2) for 10 seconds or 1 minute, for males and females, respectively.
NT is the non-treated control. Before each imaging session, mice were injected i.p. with 150 mg/kg luciferin. […] Measurements on each mouse were performed as described above. […] Measurements on each mouse were performed as described above.

hPXR = target: T1, hPXR (Homo sapiens, UniProt O75469); settings: cited from earlier work
T1 sequence (O75469 1-434): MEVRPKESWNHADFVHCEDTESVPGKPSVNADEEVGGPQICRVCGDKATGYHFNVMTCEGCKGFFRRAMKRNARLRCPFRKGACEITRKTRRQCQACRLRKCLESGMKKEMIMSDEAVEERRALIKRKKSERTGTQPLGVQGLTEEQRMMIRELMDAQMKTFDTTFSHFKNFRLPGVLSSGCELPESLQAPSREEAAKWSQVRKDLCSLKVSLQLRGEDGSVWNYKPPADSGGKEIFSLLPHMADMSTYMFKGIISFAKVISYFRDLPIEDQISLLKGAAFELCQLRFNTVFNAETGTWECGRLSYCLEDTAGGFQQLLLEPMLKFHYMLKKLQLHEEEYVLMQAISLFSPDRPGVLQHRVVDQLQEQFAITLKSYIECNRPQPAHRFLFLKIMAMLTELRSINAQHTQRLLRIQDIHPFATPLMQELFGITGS

For `COC(=O)C1=C(C)NC(C)=C(C(=O)OC)C1c1ccccc1[N+](=O)[O-]` [Nif, nifedipine], the “induction of the transgene CYP3A4-luc” value [1] is given as “induced the transgene CYP3A4-luc better than other three compounds” and the “induction of CYP3A4 expression via hPXR” value (hPXR) is given as “relatively better inducers of CYP3A4 expression”.

Source: patent US7449567B2, “Isolation and identification of mouse and human transcription control elements associated with cytochrome expression” (Xenogen Corporation, priority 2001, dated 2008)
